Test results published in patent US6806267B1, “Apoptosis-inducing compounds” (priority 1998, dated 2004).
Some entries share one result that the patent states for a list of compounds.

Test system: CML cell lines K562, KYO.1 and Lama 84
Test: Apoptosis in CML cell lines, cytospin and staining
Assay type: cell-based, human
Conditions: 10 μM, 16 hour treatment

Row | SMILES | apoptosis
1 | CN(C)C(=O)OC1=C(c2cccc3ccccc23)Oc2ccccc2-n2cccc21 [PBOX-6, 7-((Dimethylcarbamoyl)oxy)-6-(1-naphthyl)pyrrolo[2,1-d][1,5]benzoxazepine] | up to 50%
2 | CNC(=O)OC1=C(c2cccc3ccccc23)Oc2ccccc2-n2cccc21 [PBOX-7, 7-[(Methylcarbamoyl)oxy]-6-(1-naphthyl)pyrrolo[2,1-d][1,5]-benzoxazepine] | up to 50%
